Data set [1] deals with PCNA D232A + trFAN1 R507H. The experiment in a line: SPR. Particulars: 100 nM trFAN1; recombinant protein.
For data set [2], the system named is PCNA WT + FAN1 WT. The data set can be described thus: SPR. Particulars: 100 nM FAN1, Kd within 4-fold of homoduplex; recombinant protein.
Data set [3] deals with PCNA D232A + FAN1 R507H. The data set can be described thus: SPR. Particulars: PCNA titrated, 100 nM FAN1; recombinant protein.
Data set [4] relates to PCNA D232A + FAN1 WT. The data set can be described thus: SPR. Conditions: PCNA titrated, 100 nM FAN1; recombinant protein.
Data set [5] deals with PCNA WT (human) (UniProt P12004). The experiment in a line: SPR. Conditions: no FAN1; recombinant protein; protein details: His tag removed by PreScission.
The test system of data set [6] is PCNA D232A + trFAN1 R507H. The experiment in a line: MST. Conditions: 100 nM trFAN1, MST: 25 mM HEPES pH 7.5, 125 mM KCl, 10 mM CaCl2, 5% glycerol, 1 mM TCEP, 0.005% Tween-20, 0.1% BSA, 10 nM Cy5-DNA, 25 °C, recombinant protein; for binding result: label: 3'-Cy5 on strand 2.
For data set [7], the system named is PCNA WT + FAN1 WT. The experiment in a line: MST. Conditions: MST: 25 mM HEPES pH 7.5, 125 mM KCl, 10 mM CaCl2, 5% glycerol, 1 mM TCEP, 0.005% Tween-20, 0.1% BSA, 10 nM Cy5-DNA, 25 °C, recombinant protein; for binding result: 100 nM FAN1, Kd within 4-fold of homoduplex, label: 3'-Cy5 on strand 2.
Data set [8] deals with PCNA D232A + FAN1 R507H. The data set can be described thus: MST. Conditions: PCNA titrated, 100 nM FAN1; MST: 25 mM HEPES pH 7.5, 125 mM KCl, 10 mM CaCl2, 5% glycerol, 1 mM TCEP, 0.005% Tween-20, 0.1% BSA, 10 nM Cy5-DNA, 25 °C; recombinant protein; label: 3'-Cy5 on strand 1; letters put together from the description.
Data set [9] deals with PCNA D232A + FAN1 WT. The experiment in a line: MST. Particulars: PCNA titrated, 100 nM FAN1; MST: 25 mM HEPES pH 7.5, 125 mM KCl, 10 mM CaCl2, 5% glycerol, 1 mM TCEP, 0.005% Tween-20, 0.1% BSA, 10 nM Cy5-DNA, 25 °C; recombinant protein; label: 3'-Cy5 on strand 1; letters put together from the description.
The target in data set [10] is PCNA WT (human) (UniProt P12004). The experiment in a line: MST. Conditions: no FAN1; MST: 25 mM HEPES pH 7.5, 125 mM KCl, 10 mM CaCl2, 5% glycerol, 1 mM TCEP, 0.005% Tween-20, 0.1% BSA, 10 nM Cy5-DNA, 25 °C; recombinant protein; protein details: His tag removed by PreScission; label: 3'-Cy5 on strand 1; letters put together from the description.
For the next data set, the system named is PCNA WT + FAN1 R507H. The experiment in a line: MST. Particulars: PCNA titrated, 100 nM FAN1; MST: 25 mM HEPES pH 7.5, 125 mM KCl, 10 mM CaCl2, 5% glycerol, 1 mM TCEP, 0.005% Tween-20, 0.1% BSA, 10 nM Cy5-DNA, 25 °C; recombinant protein; label: 3'-Cy5 on strand 1; letters put together from the description.

Sequences of proteins named here, by UniProt entry; tags and fusion partners are left off.
UniProt P12004, whole entry: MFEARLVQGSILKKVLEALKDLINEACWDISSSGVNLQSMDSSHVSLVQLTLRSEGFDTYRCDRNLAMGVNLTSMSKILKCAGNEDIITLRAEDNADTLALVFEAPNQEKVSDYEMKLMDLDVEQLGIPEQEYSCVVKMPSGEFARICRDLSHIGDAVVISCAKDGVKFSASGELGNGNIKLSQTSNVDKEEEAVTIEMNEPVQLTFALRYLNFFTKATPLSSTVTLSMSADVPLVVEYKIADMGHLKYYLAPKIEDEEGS

For at least one entry, the source does not settle the construct or the ends of the probe. For part of these data: The comparison behind a weaker result is the experiment's own reference, which may not be listed here. For part of these data: At least one verdict was read from the data and is not stated in words by the source.

Turning to “CCGCTTTCTTCCCTTCCTTTGTGCACACGTTCCGAGATATCCTAGCAAGTGATCGTCAGCAGCAGCAGCTATGTAGCTCAAGAGTTCGACTTTCCCCGCTAAGCTCTACATCCGAGGCTCGCCGA / TCGGCGAGCCTCGGATGTAGAGCTTAGCGGGGAAAGTCGAACTCTTGAGCTACATAGTACGATCACTTGCTAGGATATCTCGGAACGTGTGCACAAAGGAAGGGAAGAAAGCGG [113 bp (CAG)4 extrahelical extrusion]”, the binding result in data set [1] is given as “binds more weakly”; in the data set with PCNA WT + FAN1 WT [2], “binds”.

Regarding “CCGCTTTCTTCCCTTCCTTTGTGCACACGTTCCGAGATATCCTAGCAAGTGATCGTCAGCAGCAGCTATGTAGCTCAAGAGTTCGACTTTCCCCGCTAAGCTCTACATCCGAGGCTCGCCGA / TCGGCGAGCCTCGGATGTAGAGCTTAGCGGGGAAAGTCGAACTCTTGAGCTACATAGTACGATCACTTGCTAGGATATCTCGGAACGTGTGCACAAAGGAAGGGAAGAAAGCGG [113 bp (CAG)3 extrahelical extrusion]”, the binding result is reported as “binds more weakly” in [1] and “binds” with PCNA WT + FAN1 WT [2].

As for “CCGCTTTCTTCCCTTCCTTTGTGCACACGTTCCGAGATATCCTAGCAAGTGATCGTCAGCAGCTATGTAGCTCAAGAGTTCGACTTTCCCCGCTAAGCTCTACATCCGAGGCTCGCCGA / TCGGCGAGCCTCGGATGTAGAGCTTAGCGGGGAAAGTCGAACTCTTGAGCTACATAGTACGATCACTTGCTAGGATATCTCGGAACGTGTGCACAAAGGAAGGGAAGAAAGCGG [113 bp (CAG)2 extrahelical extrusion]”, the binding result in [1] is “binds more weakly”.

In the case of “CCGCTTTCTTCCCTTCCTTTGTGCACACGTTCCGAGATATCCTAGCAAGTGATCGTCAGCTATGTAGCTCAAGAGTTCGACTTTCCCCGCTAAGCTCTACATCCGAGGCTCGCCGA / TCGGCGAGCCTCGGATGTAGAGCTTAGCGGGGAAAGTCGAACTCTTGAGCTACATAGTACGATCACTTGCTAGGATATCTCGGAACGTGTGCACAAAGGAAGGGAAGAAAGCGG [113 bp (CAG)1 extrahelical extrusion]”, the binding result in data set [1] is listed as “binds more weakly”; with PCNA WT + FAN1 WT [2], “binds”.

“CCGCTTTCTTCCCTTCCTTTGTGCACACGTTCCGAGATATCCTAGCAAGTGATCGTCTATGTAGCTCAAGAGTTCGACTTTCCCCGCTAAGCTCTACATCCGAGGCTCGCCGA / TCGGCGAGCCTCGGATGTAGAGCTTAGCGGGGAAAGTCGAACTCTTGAGCTACATAGTACGATCACTTGCTAGGATATCTCGGAACGTGTGCACAAAGGAAGGGAAGAAAGCGG [113 bp homoduplex]”: the binding result with PCNA D232A + FAN1 R507H [3] is “binds more weakly”. Further, the Kd – broadly, the concentration at which binding is half-saturated – in the data set with PCNA D232A + FAN1 WT [4] is 3.7 µM; with PCNA WT (human) [5], greater than 10 µM.

In the case of “CTGAAGCTTAGCTTAGGATCATCGAGGATCCAGAGCTCGGTGCAATTCAGCGGTACCCAATTC / GAATTGGGTACCGCTGAATTGCACCGAGCTGATCCTCGATGATCCTAAGCTAAGCTTCAG [61 bp (CAG)1 extrahelical extrusion]”, the figures for the binding result (in data set [6]; in the data set on PCNA WT + FAN1 WT [7]) were “binds more weakly” and “binds”, respectively.

As for “CTGAAGCTTAGCTTAGGATCATCGAGGATCCAGCAGAGCTCGGTGCAATTCAGCGGTACCCAATTC / GAATTGGGTACCGCTGAATTGCACCGAGCTGATCCTCGATGATCCTAAGCTAAGCTTCAG [61 bp (CAG)2 extrahelical extrusion]”, the binding result in data set [6] is “binds more weakly”; in the data set with PCNA WT + FAN1 WT [7] it was “binds”.

Turning to “CTGAAGCTTAGCTTAGGATCATCGAGGATCCAGCAGCAGAGCTCGGTGCAATTCAGCGGTACCCAATTC / GAATTGGGTACCGCTGAATTGCACCGAGCTGATCCTCGATGATCCTAAGCTAAGCTTCAG [61 bp (CAG)3 extrahelical extrusion]”, the figures for the binding result (in data set [6]; in the data set on PCNA WT + FAN1 WT [7]) were “binds more weakly” and “binds”, respectively.

For “CTGAAGCTTAGCTTAGGATCATCGAGGATCCAGCAGCAGCAGAGCTCGGTGCAATTCAGCGGTACCCAATTC / GAATTGGGTACCGCTGAATTGCACCGAGCTGATCCTCGATGATCCTAAGCTAAGCTTCAG [61 bp (CAG)4 extrahelical extrusion]”, the results for the binding result (in data set [6]; in the data set on PCNA WT + FAN1 WT [7]) were “binds more weakly” and “binds”, respectively.

With “GAATTGGGTACCGCTGAATTGCACCGAGCTGATCCTCGATGATCCTAAGCTAAGCTTCAG (double strand) [61 bp homoduplex]”, the Kd was 5.1 µM with PCNA D232A + FAN1 R507H [8]; 1.3 µM with PCNA D232A + FAN1 WT [9]; 15.8 µM in data set [6] (PCNA titrated, label: 3'-Cy5 on strand 1, letters put together from the description); greater than 10 µM with PCNA WT (human) [10]; 2.3 µM with PCNA WT + FAN1 R507H; 0.5 µM in the data set on PCNA WT + FAN1 WT [7] (PCNA titrated, 100 nM FAN1, label: 3'-Cy5 on strand 1, letters put together from the description).

For the origin of these results see paper PMC12078616.
